Source: patent US20020045574A1 (priority 2000, published 2002)

Experiment: general procedure: peptide synthesis; PyBOP/HOBt
Conditions: late stage modification step, tris trifluoroacetate salt

3″ -N-(4-(3,4-dichlorobenzyloxy)-benzyl)-6′-deoxy-6′-guanidinyl-vancomycin morpholine amide, tris trifluoroacetate salt
step yield: 84% yield
